# From publication PMC12365614, “Bipartite chromatin recognition by Hop1 from two diverged Holozoa”
# Target: T1, P. miniata Hop1 CBR R480A (GST) (Patiria miniata) (UniProt A0A913ZKG6)
# T1 sequence (looked up): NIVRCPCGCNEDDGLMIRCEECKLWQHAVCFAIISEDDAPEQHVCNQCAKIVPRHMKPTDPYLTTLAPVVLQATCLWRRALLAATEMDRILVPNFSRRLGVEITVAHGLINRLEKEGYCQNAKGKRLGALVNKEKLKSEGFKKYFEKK
# Experiment: fluorescence polarization
# Conditions: FP: 20 mM Tris-HCl pH 8, 100 mM Na glutamate, 5 mM MgCl2, 3% glycerol, 0.5 mM BME, 50 nM DNA, 4 C 30 min; recombinant protein; residues 352-499; protein details: N-terminal His6-GST (uncleaved); label: 5' 6-FAM on strand 1
sequence,measurement,value
CTTATATCTGAATAGTCAGT (double strand) [20-bp FAM duplex],binding result,no binding

# No signal at the amounts used counts as a negative. At least one verdict rests on a figure or table, not on a statement of the authors. Tags and fusion partners may be left off the protein sequences shown.
